# Reference: PubChem BioAssay (NCATS)
# Inconclusive means that the source gave no clear call. Such entries were picked first, then a sample of the others. Potencies beside an inconclusive call are fits to weak or partial responses and may not hold up. Active and inactive are the calls of the source. Calls follow the shape of the dose curve; as a rule, active = well fitted inhibition curve with a large enough effect; inconclusive = small, poorly fitted or top-dose-only effect; inactive = no such curve, though single readings can be large or run the other way.
# Assay: qHTS for Inhibitors of WRN Helicase: Thiazole Orange DNA Binding Counterscreen (AID 720499);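 also: drop in dye fluorescence marks compound binding to DNA; nearly all actives have a fitted effect of over 60% in size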
# Conditions: thiazole orange DNA binding displacement, fluorescence; series mostly up to 57.1 µM
# How it was run: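 Fluorescent ThO–DNA complex (100 nM dye, 50 nM unlabeled DNA) exposed to test compounds for 15 min at room temperature; emission at 530 nm after 480 nm excitation reports dye displacement.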
# Potency is read from the fitted curve at half-maximal effect.
row,SMILES,Potency
1,COc1cc(/C=C2\SC(=S)N(N(C)c3ccccc3)C2=O)ccc1O,"inconclusive: 42.9 µM [inhibitor, single point]"
2,COc1ccc(OC)c(/C=N/Nc2nc(C)cc(=O)[nH]2)c1,inactive
3,COc1ccccc1Nc1ccc2c(O)cc(S(=O)(=O)O)cc2c1,"inconclusive: 19.2 µM [inhibitor, partial curve]"
4,NS(=O)(=O)c1ccc(CCNC(=O)c2ccc3nccnc3c2)cc1,"inconclusive: 24.1 µM [inhibitor, partial curve]"
5,COc1ccc(Nc2nc(N)c3cc(OC)c(OC)cc3n2)cc1,"inconclusive: 30.4 µM [inhibitor, partial curve, poor fit]"
6,COc1cccc2c(SCC(=O)N/N=C/c3ccc(O)c(O)c3)cc(C)nc12,"inconclusive: 27.1 µM [inhibitor, partial curve]"
7,COc1ccc(-c2nn(C)c3sc(C(=O)Nc4cc(OC)c(OC)c(OC)c4)cc23)cc1OC,"inconclusive: 17.1 µM [inhibitor, partial curve]"
8,CCOC(=O)C(C)N1C(=O)S/C(=C\c2ccc(-c3ccccc3C(=O)O)o2)C1=O (stereo not given),inactive
9,CSC1SCC2C(=O)N(C)C(C(C)C)C(=O)OCC(NC(=O)c3cnc4ccccc4n3)C(=O)NC(C)C(=O)N(C)C1C(=O)N(C)C(C(C)C)C(=O)OCC(NC(=O)c1cnc3ccccc3n1)C(=O)NC(C)C(=O)N2C (stereo not given),"inconclusive: 0.383 µM [inhibitor, full curve]"
10,CN(C)c1ccc(/C=C/c2ccc3ccccc3[n+]2C)cc1,active: 27.1 µM
11,O=C(O)c1ccc(N/N=C/C=C/c2ccc([N+](=O)[O-])o2)cc1,"inconclusive: 27.1 µM [inhibitor, single point]"
12,COC(=O)c1c(NC(=O)CCCOc2ccc(C)cc2)sc2c1C(C(=O)OC)CC2 (stereo not given),active: 24.1 µM
13,N#Cc1c([N+](=O)[O-])cc([N+](=O)[O-])cc1S(=O)(=O)Cc1ccccc1,"inconclusive: 30.4 µM [inhibitor, single point]"
14,O=C(c1ccc(=O)oc1)N1CCCc2ccccc21,inactive
15,COc1ccccc1CNC(=O)COC(=O)c1cc(-c2ccco2)nc2ccccc12,"inconclusive: 27.1 µM [inhibitor, partial curve]"
16,N#Cc1c(-c2csc(-c3no[n+]([O-])c3C#N)c2)no[n+]1[O-],inactive
17,CCOC(=O)C1=C(C)N=c2sc(=Cc3ccc(OCC(=O)O)cc3)c(=O)n2C1c1ccc(Cl)cc1 (stereo not given),inactive
18,COCCN1C(=O)/C(=C/c2ccc(OCc3ccc(C(=O)O)cc3)c(OC)c2)SC1=Nc1ccccc1,"inconclusive: 24.1 µM [inhibitor, partial curve]"

# Reformatted bar-delimited: 2 of the compounds above.
row | SMILES | Potency
10 | CN(C)c1ccc(/C=C/c2ccc3ccccc3[n+]2C)cc1 | active: 27.1 µM
11 | O=C(O)c1ccc(N/N=C/C=C/c2ccc([N+](=O)[O-])o2)cc1 | inconclusive: 27.1 µM [inhibitor, single point]

# Carrying on.

row,SMILES,Potency
1,O=C(CCCN1C(=O)/C(=C\c2ccco2)SC1=S)Nc1ccc(O)cc1C(=O)O,"inconclusive: 21.5 µM [inhibitor, partial curve, poor fit]"
2,CCCC(=O)NC1=C(Cl)C(=O)c2ccccc2C1=O,active: 4.82 µM
3,COc1ccc(S(=O)(=O)N2CCN(C(=O)c3cc4c(s3)CCC4)CC2)cc1,"inconclusive: 24.1 µM [inhibitor, partial curve, poor fit]"
4,CSc1ccc(/C=N/Nc2cccc(C(=O)O)c2)cc1,"inconclusive: 21.5 µM [inhibitor, partial curve, poor fit]"
5,O=C(Cn1c2ccccc2c(=O)c2ccccc21)N/N=C/c1cc([N+](=O)[O-])ccc1N1CCCCCC1,inactive
6,C=CCOC(=O)c1cc(-c2ccc(/C=C3\C(=O)NC(=O)C(C#N)=C3C)o2)ccc1Cl,"inconclusive: 24.1 µM [inhibitor, partial curve]"
7,O=C(N/N=C/c1ccncc1)c1cccc(S(=O)(=O)Nc2ccc(Cl)cc2)c1,inactive
8,c1cnc(N2CCN(c3ncc4c(n3)CCNC4)CC2)nc1,"inconclusive: 21.5 µM [inhibitor, partial curve]"
9,O=C1NC(=Nc2ccc(O)cc2)S/C1=C\C=C\c1ccco1,"inconclusive: 24.1 µM [inhibitor, partial curve]"
10,COc1cc(/C=N/Nc2nc(Nc3ccccc3)nc(-n3nc(C)cc3C)n2)cc(OC)c1OC,inactive
11,O=C1c2cccc(NCCNCCO)c2C(=O)c2cccc(NCCNCCO)c21,active: 1.21 µM
12,Nc1ccc2nc(-c3cccc(-c4nc5ccc(N)cc5[nH]4)n3)[nH]c2c1,active: 17.1 µM
13,CCN(c1ccccc1)S(=O)(=O)c1cc(C(=O)OCC(=O)c2c(N)n(C)c(=O)n(C)c2=O)ccc1C,"inconclusive: 21.5 µM [inhibitor, partial curve]"
14,N#CNC(=O)c1ccc(-n2cccc2/C=C2\NC(=O)N(CC(=O)Nc3cccc(F)c3)C2=O)cc1,active: 9.61 µM
15,COc1ccc(OC)c2nc3c(C(=O)NCCN(C)C)cccc3nc12,active: 10.8 µM
16,COc1cc(/C=C2/SC(=S)N(Cc3ccccc3)C2=O)cc(Cl)c1O,"inconclusive: 42.9 µM [inhibitor, single point]"
17,COc1cc([N+](=O)[O-])cc(/C=C2/SC(=S)N(Cc3ccccc3)C2=O)c1O,active: 13.6 µM
